This is an account of results in PubChem BioAssay AID445 (National Center for Advancing Translational Sciences (NCATS), 2006).

Each structure is given as a SMILES string. The list shows a part of the results. The main result of the screen is listed elsewhere. These columns were measured beside it and carry no call. The list favours compounds with an active or inconclusive main result. Words in brackets tell the shape of the fitted curve; partial curves, single points and poor fits give uncertain potencies.

What is called AC50 is the concentration at which the activity in the assay is half-maximal.

A short description of this assay: IkB Signaling. The settings on record: ABC-DLBCL IkBa-CBG/CBR dual luciferase ratio (green luciferase fused to IkBa over red control in OCI-Ly3 lymphoma cells), 4 h; measured here: control luc red channel unless noted. A digest of the protocol:
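Curves were fitted separately to fusion (green), unfused (red) and ratio luminescence, then classed by r2, magnitude and activity. Cells: OCI-Ly3, 4 h compound plus doxycycline at 37C; 10 uM MG-132 defined full response.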
Turning to `COc1ccc(C(=O)CSc2nnc(COc3ccccc3)n2Cc2ccco2)cc1`, the AC50 was 10 µM [falling, partial curve].

On to `CS(=O)(=O)N1CCc2cc(-c3csc(NC(=O)Cc4cccs4)n3)ccc21`, for which the AC50 is 15.8 µM [falling, partial curve].

Take `C=CCn1c(-c2ccc(OC)c(OC)c2)cs/c1=N\c1ccccn1`: the AC50 was 15.8 µM [falling, partial curve].

Consider `COc1cc(NC(=O)c2ccc(COc3ccccc3Br)o2)cc(OC)c1OC`, for which the AC50 was 3.98 µM [falling, full curve].

For the compound `CC(C)(C)c1cnnn1-c1ccc(NC(=O)c2ccc(Br)o2)cc1`, the AC50 is 3.98 µM [falling, full curve, poor fit].

For the compound `Cc1ccc(CNC(=O)CCNS(=O)(=O)c2ccc3c(c2)oc(=O)n3C)cc1`, the AC50 is 3.16 µM [falling, full curve, poor fit].

In the case of `Cc1cc(C)c(S(=O)(=O)Nc2ccc3oc(C)c(C(=O)OC(C)C)c3c2)cc1C`, the AC50 is 31.6 µM [falling, partial curve].

In the case of `COc1cccc(Nc2nnc(-c3cc4ccc(O)cc4oc3=O)s2)c1`, the AC50 is 0.316 µM [falling, full curve].

In the case of `Cc1nn(C)c2c1c(C(F)(F)F)cc(=O)n2CC(=O)NCc1ccc(OC(C)C)cc1`, the AC50 was 31.6 µM [falling, single point].

Turning to `CCOC(=O)c1ccccc1NC(=O)c1c(F)c(F)c(F)c(F)c1F`, the AC50 is 15.8 µM [falling, partial curve].

Take `COc1cc(Cn2c(=O)oc3ccc(C)cc32)ccc1OCCC(C)C`: the AC50 is 12.6 µM [falling, single point].

Consider `CC(C)(C)c1ccc(S(=O)(=O)N2CCC(Oc3ccc(-n4cnnn4)cc3)CC2)cc1`, for which the concentration at half-maximal activity (AC50) was 0.794 µM [falling, full curve, poor fit].

Turning to `COc1cccc(C(c2nnnn2Cc2ccc(F)cc2)N2CCC(C(N)=O)CC2)c1OC` (stereo not drawn), the AC50 was 15.8 µM [falling, partial curve].

`O=C(CSc1nc2ccsc2c(=O)n1Cc1ccc(F)cc1)NCc1ccc(Cl)cc1`: the AC50 is 0.158 µM [rising, full curve].

Consider `CN1c2ccc(Cl)cc2-c2nc(SCC(=O)NCc3ccc(F)cc3)ncc2S1(=O)=O`, for which the half-maximal activity concentration (AC50) was 12.6 µM [rising, partial curve, poor fit].

As for `CC1=C(C(=O)Nc2ccc(C)cc2C)C(c2ccccc2)n2nc(SCC(=O)c3ccc(C)cc3)nc2N1` (stereo not drawn), the AC50 is 7.94 µM [rising, single point].

Take `Cc1cc(Nc2ccc(Br)cc2)n2nc(-c3ccccc3C)nc2n1`: the AC50 was 25.1 µM [falling, partial curve].

For `Oc1ccc(-c2nc(-c3ccc(F)cc3)c(-c3ccncc3)[nH]2)cc1`, the AC50 was 39.8 µM [falling, partial curve, poor fit].

As to `Cc1onc(-c2ccccc2)c1C(=O)Nc1nnc(COc2ccc(Cl)cc2)s1`, the AC50 is 7.94 µM [falling, partial curve].

For the compound `CC(C)(C)Cc1nc(-c2ccccn2)no1`, the AC50 is 3.16 µM [falling, full curve].

On to `CCOC(=O)CSc1nc2sc(C(=O)O)c(C)c2c(=O)[nH]1`, for which the AC50 was 12.6 µM [falling, partial curve].

Take `COc1ccccc1NC(=O)CCC(=O)Nc1ccccc1OC`: the AC50 was 12.6 µM [falling, partial curve].

Turning to `O=C1C=C(N2CCN(c3ccccn3)CC2)C(=O)c2c(O)ccc(O)c21`, the AC50 is 5.01 µM [rising, partial curve] [measured here: IkB-luc green channel].

On to `O=C(Nn1c(Cc2cccs2)nc2ccccc2c1=O)c1cccs1`, for which the AC50 was 39.8 µM [falling, single point].

Consider `COc1ccc(-c2nc(CSCC(=O)NCCc3ccc(C)cc3)c(C)o2)cc1OC`, for which the AC50 was 31.6 µM [falling, single point].

In the case of `CCS(=O)(=O)c1ccccc1C(=O)N(Cc1cccnc1)c1nc2cc(C)c(C)cc2s1`, the AC50 is 2.51 µM [rising, partial curve].

Turning to `Cc1c(C(=O)NCc2ccc(Cl)cc2)sc2nc3n(c(=O)c12)CCCC3`, the AC50 was 31.6 µM [falling, single point].

Regarding `CCOc1ccc(CNC(=O)c2ccc(NC(=O)c3nsc4ccccc34)cc2)cc1`, the AC50 is 0.251 µM [falling, full curve].

Consider `CC1(C)CC(=O)C2=C(C1)NC(SCC(=O)Nc1ccccc1)=C(C#N)C21CCCCC1`, for which the AC50 was 3.16 µM [falling, full curve].

For `CCC(Cc1ccccc1)NC(=O)c1oc(=O)c2ccccc2c1-c1ccccc1` (stereo not drawn), the AC50 is 39.8 µM [falling, single point].

Consider `Cc1cccc(C)c1OCCCCn1c(C2CC(=O)N(c3ccc(F)cc3)C2)nc2ccccc21` (stereo not drawn), for which the half-maximal activity concentration (AC50) was 15.8 µM [falling, partial curve].

On to `Cc1cc(NC(c2nnc(-c3ccccc3)o2)c2ccccc2F)ccc1Br` (stereo not drawn), for which the AC50 was 15.8 µM [falling, single point].

As to `CCN1C(=O)c2cccc3c(S(=O)(=O)Nc4ccc(O)c(C(=O)O)c4)ccc1c23`, the half-maximal activity concentration (AC50) was 31.6 µM [falling, partial curve].

With `CCOc1ccccc1C(=O)N(Cc1ccc(N(C)C)cc1)CC1CCCO1` (stereo not drawn), the AC50 was 39.8 µM [falling, single point].

Turning to `CC(C)(C)OC(=O)N1CCC(c2c(C(=O)N3CCc4ccccc4C3)cnn2-c2ccc(Cl)cc2)CC1`, the AC50 is 31.6 µM [falling, partial curve].

`O=C(O)c1c(F)c(F)c(F)c(F)c1-c1ccc(Cl)cc1`: the concentration at half-maximal activity (AC50) is 12.6 µM [falling, partial curve].

As to `Cc1cc(C)cc(C(=O)N2CC(=O)Nc3ccc(C)cc3C2c2ccccc2)c1` (stereo not drawn), the AC50 was 25.1 µM [falling, partial curve].

As for `c1ccc(C(c2cccs2)c2c[nH]c3ccccc23)cc1` (stereo not drawn), the AC50 is 12.6 µM [falling, partial curve].

For `Cc1cccc(Cn2c(=O)n(Cc3ccco3)c(=O)c3ccccc32)c1`, the AC50 is 39.8 µM [falling, single point].

For the compound `Cc1ccc(-c2noc(CN(C3CCCCC3)S(=O)(=O)c3ccc(Cl)cc3)n2)cc1`, the concentration at half-maximal activity (AC50) is 0.251 µM [falling, partial curve].

With `Cc1ccc(CNc2ncnc3c2c(-c2ccccc2)cn3-c2cccc(Cl)c2)cc1`, the AC50 was 1.58 µM [rising, full curve, poor fit].

As to `COc1ccc(-c2nc3n(n2)C(c2ccccc2F)C(C(=O)Nc2cccnc2)=C(C)N3)cc1OC` (stereo not drawn), the AC50 is 10 µM [falling, partial curve].

On to `Oc1ccc(Cl)cc1Sc1cc(Cl)ccc1O`, for which the AC50 was 1.58 µM [falling, full curve].

For `CCCCN(C(=O)c1cccc(S(=O)(=O)N2CCCCC2)c1)C1CCS(=O)(=O)C1` (stereo not drawn), the AC50 was 0.126 µM [rising, full curve].

For the compound `O=C(Nc1ccc(F)c(Cl)c1)N1CCN2CCCCC2C1` (stereo not drawn), the AC50 was 5.01 µM [falling, partial curve].

As to `CCS(=O)(=O)N1Cc2ccccc2CC1C(=O)Nc1nc2ccccc2[nH]1` (stereo not drawn), the AC50 is 0.0501 µM [falling, full curve].

In the case of `COC(=O)c1ccccc1NC(=O)c1ccc(-c2ccccc2F)o1`, the AC50 is 0.0126 µM [falling, full curve].

`COc1ccccc1C(=O)Nc1ccc2nc(N3CCC(C)CC3)cc(C)c2c1`: the AC50 was 12.6 µM [falling, partial curve].

`CCn1c(=O)c2cc(C(=O)N(CCCOC(C)C)Cc3ccco3)sc2c2ccccc21`: the half-maximal activity concentration (AC50) is 10 µM [falling, partial curve].

As for `O=C(c1cc2c(s1)-c1ccccc1OC2)N1CCN(c2ccccn2)CC1`, the AC50 was 7.94 µM [falling, full curve].

On to `Cc1ccc(-c2sc(C(=O)Nc3ccc(Br)cc3)cc2CC(=O)O)cc1`, for which the AC50 was 15.8 µM [falling, partial curve].

Consider `O=C1Nc2ccccc2C12Nc1ccccc1-c1nc3ccccc3n12` (stereo not drawn), for which the AC50 was 7.94 µM [falling, partial curve].

Consider `Nc1c(C(=O)Nc2ccccc2Cl)c2ccccn2c1C(=O)c1ccc(Cl)cc1`, for which the AC50 is 0.1 µM [falling, full curve].

Regarding `COc1ccccc1-n1cnc2cc(C(=O)NCc3ccco3)ccc21`, the AC50 was 31.6 µM [rising, single point] [measured here: IkB-luc green channel].

For the compound `COc1ccc(NS(=O)(=O)c2ccc3c(c2)C(C(C)C)C(=O)N3)cc1` (stereo not drawn), the AC50 is 31.6 µM [falling, partial curve].

Take `CCn1c(C)c(C2N3CC4(C)CN2CC(CC)(C3)C4=O)c2ccccc21` (stereo not drawn): the AC50 was 12.6 µM [falling, partial curve, poor fit].

For `COc1ccc(Nc2ncnc3c2cnn3-c2ccc(C)cc2C)cc1`, the AC50 was 25.1 µM [falling, partial curve, poor fit].

As for `Cc1nc2nc(COc3ccccc3)[nH]n2c(=O)c1Cc1ccccc1`, the AC50 is 3.16 µM [falling, full curve].

Turning to `Cc1c(C(=O)N(C)Cc2ccccc2)oc2ccc(S(=O)(=O)N3CCCC3)cc12`, the AC50 was 25.1 µM [falling, partial curve].

In the case of `Cc1cc(NS(=O)(=O)c2ccc3nc(-c4ccccc4)[nH]c3c2)ccc1Br`, the half-maximal activity concentration (AC50) was 10 µM [falling, partial curve].

Take `COc1ccccc1-c1noc(CSc2nnc(Cc3ccccc3)n2-c2ccc(C)c(C)c2)n1`: the half-maximal activity concentration (AC50) is 25.1 µM [falling, single point].

In the case of `Cc1ccc(N2CC(c3nnc(NC(=O)c4ccco4)s3)CC2=O)cc1Cl` (stereo not drawn), the AC50 is 12.6 µM [falling, partial curve, poor fit].

For the compound `CSc1ccc(C2c3[nH]c4ccccc4c3CCN2C(=O)CCc2ccccc2)cc1` (stereo not drawn), the AC50 was 0.0501 µM [falling, full curve].
